In publication PMC6221024:

T1: syndecan‐4 (rat (endogenous in soleus muscle)) (UniProt P34901)
T1 sequence (chain, heparan sulfate chains attached to the ectodomain): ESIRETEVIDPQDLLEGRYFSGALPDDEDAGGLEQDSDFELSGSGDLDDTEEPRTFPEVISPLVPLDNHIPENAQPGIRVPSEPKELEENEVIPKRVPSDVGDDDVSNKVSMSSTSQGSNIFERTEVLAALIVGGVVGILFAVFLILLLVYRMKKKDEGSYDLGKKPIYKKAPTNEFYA

B1: syndecan‐4 (protein, UniProt P34901 24-202)
chain: T1 sequence (chain, heparan sulfate chains attached to the ectodomain)
modifications: heparan sulfate chains attached to the ectodomain

Key:
[1] = target: T1, syndecan‐4 (rat (endogenous in soleus muscle)); assay: co-IP; rat soleus muscle homogenates, un-injured (day 0) and 3 days after notexin injury; pre-cleared with Protein A/G beads; overnight with rabbit anti-myostatin (AB3239) or anti-SDC4 antibody, then Protein A/G; washed with 25 mM Tris, 150 mM NaCl, pH 7.2; eluted with 0.2 M glycin pH 2.5; immunoblot
[2] = target: T1, syndecan‐4 (rat (endogenous in soleus muscle)); assay: condition: only after heparinase II digestion of the immunoprecipitate (0.4 mU, 3 h, 37 °C); co-IP; injured (day 3) rat soleus homogenates; IP with goat anti-SDC4 antibody, then the immunoprecipitate digested with 0.4 mU heparinase II for 3 h at 37 °C in 50 mM HEPES pH 6.5, 50 mM NaOAc, 150 mM NaCl, 5 mM CaCl2; supernatant and eluted immunocomplex blotted
[3] = target: promyostatin (rat (endogenous in soleus muscle)) (UniProt O35312); assay: co-IP; rat soleus muscle homogenates, un-injured (day 0) and 3 days after notexin injury; pre-cleared with Protein A/G beads; overnight with rabbit anti-myostatin (AB3239) or anti-SDC4 antibody, then Protein A/G; washed with 25 mM Tris, 150 mM NaCl, pH 7.2; eluted with 0.2 M glycin pH 2.5; immunoblot

Row | Molecule | binding [1] | binding [2] | binding [3]
1 | promyostatin (from UniProt O35312) | binds | no binding | –
2 | B1 | – | – | binds

These are yes or no findings as the source states them, for the method shown. In cells and extracts the contact can be indirect. For part of these data: Binding can be weak; no strength is given.
